# Source: PubChem BioAssay (NCATS)
# Inconclusive results, whose numbers are uncertain, are shown with a selection of clear calls. Potencies beside an inconclusive call are fits to weak or partial responses and may not hold up. The source made the active and inactive calls. Calls come from the whole dose curve; as a rule, active = well fitted cell-killing curve with a large enough effect; inconclusive = small, poorly fitted or top-dose-only effect, or effect the other way; inactive = no such curve, though single readings can be large or run the other way. Where a SMILES comes first, the peptide text is derived from it. [ ]: non-standard residue; d: D form. The star is where a group is joined. Nva = CCC[C@H](N)C(=O)O; Cbz = O=C(OCc1ccccc1)*
# Assay: Quantitative High-Throughput drug screen in 47 multiple myeloma cell lines against the NCATS MIPE library collection: OCIMY1_PLB cell viability assay (AID 1918979); note: nearly all actives have a fitted effect of over 35% in size
# Settings: OCI-MY1 myeloma viability, CellTiter-Glo ATP, 48 h; viability: at 45.8 µM (top of the series) unless noted
# Excerpt: PI: Beverly A. Mock Ph.D.
# Laboratory of Cancer Biology and Genetics,
# Center for Cancer Research, National Cancer Institute,
# National Institute of Health, Bethesda, Maryland
# Drug resistance and disease progression are common in multiple myeloma (MM) patients, underscoring the need for new therapeutic combinations. […] We hypothesized that effective combinations would reduce MYC expression and enhance p16 activity. […] These preclinical data identify potentially useful drug combinations for evaluation in drug-resistant MM and reveal potential mechanisms of combined drug sensitivity.
# Described herein is the primary MIPE qHTS used to cherrypick compounds. Validated compounds were then further tested for potential synergistic activiy.
# [1] Peat TJ, Gaikwad SM, Dubois W, Gyabaah-Kessie N, Zhang S, Gorjifard S, Phyo Z, Andres M, Hughitt VK, Simpson RM, Miller MA, Girvin AT, Taylor A, Williams D, D'Antonio N, Zhang Y, Rajagopalan A, Flietner E, Wilson K, Zhang X, Shinn P, Klumpp-Thomas C, McKnight C, Itkin Z, Chen L, Kazandijian D, Zhang J, Michalowski AM, Simmons JK, Keats J, Thomas CJ, Mock BA. Drug combinations identified by high-throughput screening promote cell cycle transition and upregulate Smad pathways in myeloma. Cancer Lett. 2023 Aug 1;568:216284. doi: 10.1016/j.canlet.2023.216284. Epub 2023 Jun 24. PMID: 37356470; PMCID: PMC10408729.
# SEQUENCE No. (e.g., 1, 2, 3, etc.); […] (e.g., Cells, Incubation, Reagent, etc.); VALUE and DESCRIPTION.
# 1; Cells; 5 uL; white, solid bottom 1536-well Greiner assay plate.
# 2; Compounds; 23 nL; Kalypsis pin tool (Wako USA) equipped with a 1536-well pin head to transfer to the assay plates.
# 3; Incubation; 48 hours; 37C incubation.
# 4; Reagent;5uL; CellTiter Glo (Promega).
# 5; Detector; 425V; Luminescence; Viewlux PerkinElmer.
# NOTES (numbers refer to Sequence numbers above)
# 1. The cell-based screening methods employed in this study were like those previously published. Briefly, the corresponding myeloma cell lines were screened in 1,536-well plates with 500 cells, 5-uL per well for inhibition of cell viability (assessed by measuring ATP levels with CellTiterGlo).
# 2. NCATS MIPE 4.0 library of approved and investigational drugs were added using the Kalypsis pin tool. Wells treated with DMSO only for 100% viability and media only for 0% viability were used as controls.
# 3. The assay plates were covered and incubated for 48 hours in a 37C, 5% CO2 incubator with controlled humidity.
# 4. After 48 hours, CellTilter-GloTM luminescent substrate mix (Promega) reagent was added to the assay plate and plates we incubated for 5 min at room temperature.
# 5. Signal was measured as median relative luminescence units on a ViewLux (PerkinElmer) multiplate reader.
# [1] Heske CM, Davis MI, Baumgart JT, Wilson K, Gormally MV, Chen L, Zhang X, Ceribelli M, Duveau DY, Guha R, Ferrer M, Arnaldez FI, Ji J, Tran HL, Zhang Y, Mendoza A, Helman LJ, Thomas CJ. Matrix Screen Identifies Synergistic Combination of PARP Inhibitors and Nicotinamide Phosphoribosyltransferase (NAMPT) Inhibitors in Ewing Sarcoma. Clin Cancer Res. 2017 Dec 1;23(23):7301-7311. doi: 10.1158/1078-0432.CCR-17-1121. Epub 2017 Sep 12. PMID: 28899971; PMCID: PMC6636827.
# Potency is the fitted concentration of half-maximal effect.
row,Compound,Potency
1,CCCS(=O)(=O)Nc1ccc(F)c(C(=O)c2c[nH]c3ncc(-c4ccc(Cl)cc4)cc23)c1F,"inconclusive: 37.2 µM [cytotoxic, single point]"
2,COc1ccc(C(C)=O)c(O)c1,inactive
3,COc1cc2c(N3CCN(C(=O)Nc4ccc(OC(C)C)cc4)CC3)ncnc2cc1OCCCN1CCCCC1,"inconclusive: 33.2 µM [cytotoxic, single point]"
4,COc1cc(N2CCN(C)CC2)ccc1Nc1nc(N)c(C(=O)c2c(Cl)cccc2Cl)s1,"inconclusive: 26.4 µM [cytotoxic, single point]"
5,CN(C)c1nc(N(C)C)nc(N(C)C)n1,inactive
6,COC1CCC(C(=O)c2ccc3nc4c(cc3c2)CCCO4)CC1 (stereo not given),"inconclusive: 37.2 µM [cytotoxic, single point]"
7,CCN(CC)Cc1ccc2cc(COC(=O)Nc3ccc(C(=O)NO)cc3)ccc2c1,active: 1.32 µM
8,CC(O)C1C(=O)N2C(C(=O)O)=C(SC3CNC(C(=O)N(C)C)C3)C(C)C12 (stereo not given),"inconclusive: 0.0026 µM [rising, full curve, poor fit]"
9,CN[C@H]1[C@@H](O[C@@H]2[C@H](O[C@@H]3[C@@H](O)[C@@H](O)[C@@H](N=C(N)N)[C@@H](O)[C@@H]3N=C(N)N)O[C@H](C)[C@@]2(O)C=O)O[C@@H](CO)[C@@H](O)[C@H]1O,"inconclusive: 10.6 µM [rising, single point]"
10,Cc1ccc(NC(=O)c2ccc(CN3CCN(C)CC3)cc2)cc1Nc1nc(-c2cccnc2)cs1,"inconclusive: 0.0012 µM [cytotoxic, full curve, poor fit]"
11,CC(C)(Sc1ccc(CCN(CCCCC2CCCCC2)C(=O)NC2CCCCC2)cc1)C(=O)O,"inconclusive: 0.0019 µM [cytotoxic, full curve, poor fit]"
12,COc1ccc2c(c1)c(C1=C(c3c[nH]c4ccccc34)C(=O)NC1=O)cn2CCCN(C)C,"inconclusive: 37.2 µM [cytotoxic, single point]"
13,CC(Cc1ccc(O)c(O)c1)(NN)C(=O)O (stereo not given),"inconclusive: 37.2 µM [cytotoxic, single point]"
14,Cc1ccccc1C(=O)c1ccc(Nc2ccc(Br)cc2N)cc1Cl,"inconclusive: 26.4 µM [cytotoxic, single point]"
15,O=C1NC(O)CCN1[C@@H]1O[C@H](CO)[C@H](O)[C@H]1O (stereo not given in full),inactive
16,N#Cc1c(NC(=O)c2cccc3ccccc23)sc2c1CCCC2,"inconclusive: 0.418 µM [cytotoxic, full curve]"
17,O=C(c1ccc(C=Cc2n[nH]c3ccccc23)cc1)N1CCNCC1,"inconclusive: 10.5 µM [cytotoxic, partial curve]"
18,CCOC(=O)C(C)Oc1cccc2c(=O)n(CC(=O)Nc3ccc4c(c3)OCCO4)ccc12 (stereo not given),inactive
19,O=C(CC12CC3CC(CC(C3)C1)C2)Nc1cccc2nc(NCCNCCO)ccc12,"inconclusive: 37.2 µM [cytotoxic, single point]"
20,CCC(=O)N1CCN(c2ccc(-n3c(=O)ccc4cnc5ccc(-c6cnc7ccccc7c6)cc5c43)cc2C(F)(F)F)CC1,"inconclusive: 0.418 µM [cytotoxic, full curve, poor fit]"

row,Compound,Potency
1,Clc1ccc(COC(Cn2ccnc2)c2ccc(Cl)cc2Cl)c(Cl)c1 (stereo not given),"inconclusive: 37.2 µM [cytotoxic, single point]"
2,COc1cc(CNC(=O)CCCCC=CC(C)C)ccc1O,inactive
3,COC(=O)C1=C(C)NC(C)=C(C(=O)OC(C)C)C1c1cccc2nonc12 (stereo not given),inactive
4,Cc1cn([C@H]2C[C@H](N=[N+]=[N-])[C@@H](CO)O2)c(=O)[nH]c1=O,"inconclusive: 1.48 µM [rising, partial curve, poor fit]"
5,COC(=O)Nc1nc2ccc(C(=O)c3ccccc3)cc2[nH]1,active: 0.833 µM
6,COc1ccc2nc(S(=O)Cc3ncc(C)c(OC)c3C)[nH]c2c1 (stereo not given),"inconclusive: 0.0021 µM [rising, full curve, poor fit]"
7,COC1=C2C[C@@H](C)C[C@H](OC)[C@@H](O)[C@@H](C)C=C(C)[C@H](OC(N)=O)[C@@H](OC)C=CC=C(C)C(=O)NC(=CC1=O)C2=O,active: 0.166 µM
8,CC[C@H](CC#N)OC(=O)N[C@@H](C)c1cccc(NC(=O)Nc2ccc(-c3cnco3)c(OC)c2)c1,"inconclusive: 3.72 µM [cytotoxic, partial curve, poor fit]"
9,Cn1cc(-c2ccc3nnc(Sc4ccc5ncccc5c4)n3n2)cn1,inactive
10,NC(=O)c1cnccn1,inactive
11,Cc1cc(-c2ncc(CC(=O)Nc3ccc(-c4cnccn4)cn3)cc2C)ccn1,inactive
12,COc1ccc(-c2ccc3c(N4CCOC[C@H]4C)nc(N4CCOC[C@H]4C)nc3n2)cc1CO,"inconclusive: 0.0662 µM [cytotoxic, full curve]"
13,CCC[C@@H](C=O)NC(=O)[C@H](CC(C)C)NC(=O)[C@H](CC(C)C)NC(=O)OCc1ccccc1 (Cbz-Leu-Leu-[Nva]-aldehyde),active: 0.743 µM
14,C=CC(=O)N1CCc2ccc(-n3c(=O)ccc4cnc5ccc(-c6cnn(C)c6)cc5c43)cc21,active: 1.87 µM
15,CCN1CCCC1CNC(=O)c1cc(S(=O)(=O)CC)c(N)cc1OC (stereo not given),"inconclusive: 8.33 µM [rising, single point]"
16,COc1cc2c(cc1-c1c(C)noc1C)ncc1[nH]c(=O)n([C@H](C)c3ccccn3)c12,"inconclusive: 3.32 µM [cytotoxic, partial curve]"
17,C[C@H](O)[C@@H]1C(=O)N2C(C(=O)O)=C(S[C@@H]3CN[C@H](CNS(N)(=O)=O)C3)[C@@H](C)[C@@H]12,inactive
18,Cc1cnc(NC(=O)C2=C(O)c3ccccc3S(=O)(=O)N2C)s1,inactive
19,CCCCCCCCCCCCCCCC(=O)O[C@H]1[C@@H](O)[C@@H](O)[C@@H]([C@H](NC(=O)[C@@H]2C[C@@H](CCC)CN2C)[C@H](C)Cl)O[C@@H]1SC,"inconclusive: 0.0012 µM [cytotoxic, full curve, poor fit]"
20,CC(=O)N1CCN(c2ccc(OC[C@H]3CO[C@](Cn4ccnc4)(c4ccc(Cl)cc4Cl)O3)cc2)CC1,"inconclusive: 37.2 µM [cytotoxic, single point]"

# Part of the list above, tab-delimited:
row	Compound	Potency
15	O=C1NC(O)CCN1[C@@H]1O[C@H](CO)[C@H](O)[C@H]1O (stereo not given in full)	inactive
16	N#Cc1c(NC(=O)c2cccc3ccccc23)sc2c1CCCC2	inconclusive: 0.418 µM [cytotoxic, full curve]
